These are yes or no findings as the source states them, for the method shown. Some entries that bind do so weakly or less than the wild type.
Tests used:
Experiment in all cases: flow cytometry, Hek-293T cells expressing the mutant
[1] = biological target: T1, human CD39 mutant 1 (human) (UniProt P49961)
T1 sequence: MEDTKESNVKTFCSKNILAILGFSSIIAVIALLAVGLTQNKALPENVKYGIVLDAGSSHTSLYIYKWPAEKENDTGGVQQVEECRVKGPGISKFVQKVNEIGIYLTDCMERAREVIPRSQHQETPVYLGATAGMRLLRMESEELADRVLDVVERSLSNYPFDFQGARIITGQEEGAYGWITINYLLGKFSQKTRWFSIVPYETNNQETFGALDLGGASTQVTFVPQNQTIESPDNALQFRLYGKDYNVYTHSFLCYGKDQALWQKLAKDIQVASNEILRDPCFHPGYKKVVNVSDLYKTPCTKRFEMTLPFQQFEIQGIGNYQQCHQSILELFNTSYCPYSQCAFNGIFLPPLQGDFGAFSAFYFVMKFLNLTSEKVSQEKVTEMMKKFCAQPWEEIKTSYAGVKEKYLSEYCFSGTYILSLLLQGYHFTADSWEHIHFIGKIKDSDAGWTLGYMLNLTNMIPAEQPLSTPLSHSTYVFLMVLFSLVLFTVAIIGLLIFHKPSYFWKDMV

[2] = biological target: T2, human CD39 mutant 16 (human) (UniProt P49961)
T2 sequence: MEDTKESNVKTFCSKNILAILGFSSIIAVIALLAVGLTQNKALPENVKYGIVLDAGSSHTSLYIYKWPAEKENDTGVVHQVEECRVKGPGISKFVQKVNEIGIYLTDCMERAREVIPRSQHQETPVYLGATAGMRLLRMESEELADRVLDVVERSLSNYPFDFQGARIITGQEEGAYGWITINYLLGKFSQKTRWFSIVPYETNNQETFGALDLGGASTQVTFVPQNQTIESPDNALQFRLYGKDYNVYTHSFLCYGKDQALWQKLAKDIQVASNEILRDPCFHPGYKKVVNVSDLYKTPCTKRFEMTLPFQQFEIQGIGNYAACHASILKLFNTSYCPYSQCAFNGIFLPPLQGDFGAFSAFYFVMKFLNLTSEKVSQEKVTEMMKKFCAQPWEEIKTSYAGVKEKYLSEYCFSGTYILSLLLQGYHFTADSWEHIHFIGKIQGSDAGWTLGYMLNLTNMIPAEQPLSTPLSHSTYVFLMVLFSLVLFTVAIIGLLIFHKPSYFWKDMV

[3] = biological target: T3, human CD39 mutant 2B (human) (UniProt P49961)
T3 sequence: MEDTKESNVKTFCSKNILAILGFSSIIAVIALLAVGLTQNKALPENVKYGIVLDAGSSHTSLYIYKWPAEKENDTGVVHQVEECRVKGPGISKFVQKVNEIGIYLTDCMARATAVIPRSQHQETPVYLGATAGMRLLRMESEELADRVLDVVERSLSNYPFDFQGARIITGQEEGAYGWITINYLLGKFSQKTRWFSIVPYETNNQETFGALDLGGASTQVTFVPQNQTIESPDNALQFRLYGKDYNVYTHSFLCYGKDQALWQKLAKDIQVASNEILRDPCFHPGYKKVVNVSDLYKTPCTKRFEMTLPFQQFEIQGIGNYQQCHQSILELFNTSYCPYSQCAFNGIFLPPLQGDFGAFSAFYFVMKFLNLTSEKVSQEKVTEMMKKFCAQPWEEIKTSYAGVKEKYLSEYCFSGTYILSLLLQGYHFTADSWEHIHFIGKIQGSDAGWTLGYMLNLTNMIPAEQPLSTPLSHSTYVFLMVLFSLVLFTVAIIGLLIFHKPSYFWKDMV

[4] = biological target: T4, human CD39 mutant 8 (human) (UniProt P49961)
T4 sequence: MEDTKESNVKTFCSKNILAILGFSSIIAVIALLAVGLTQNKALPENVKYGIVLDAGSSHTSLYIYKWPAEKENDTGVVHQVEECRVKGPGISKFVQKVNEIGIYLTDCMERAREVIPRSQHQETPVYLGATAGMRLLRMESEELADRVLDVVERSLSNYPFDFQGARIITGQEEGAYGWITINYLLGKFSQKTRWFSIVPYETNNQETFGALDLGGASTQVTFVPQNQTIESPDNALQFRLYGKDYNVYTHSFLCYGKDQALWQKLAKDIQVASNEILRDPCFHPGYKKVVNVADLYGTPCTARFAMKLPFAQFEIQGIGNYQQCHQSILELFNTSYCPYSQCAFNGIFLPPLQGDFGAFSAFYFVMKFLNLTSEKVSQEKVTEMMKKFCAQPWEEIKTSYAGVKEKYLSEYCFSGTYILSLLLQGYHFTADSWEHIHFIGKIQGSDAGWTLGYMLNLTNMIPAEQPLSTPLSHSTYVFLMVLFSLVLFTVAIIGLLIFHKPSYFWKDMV

[5] = biological target: T5, human CD39 mutant 9 (human) (UniProt P49961)
T5 sequence: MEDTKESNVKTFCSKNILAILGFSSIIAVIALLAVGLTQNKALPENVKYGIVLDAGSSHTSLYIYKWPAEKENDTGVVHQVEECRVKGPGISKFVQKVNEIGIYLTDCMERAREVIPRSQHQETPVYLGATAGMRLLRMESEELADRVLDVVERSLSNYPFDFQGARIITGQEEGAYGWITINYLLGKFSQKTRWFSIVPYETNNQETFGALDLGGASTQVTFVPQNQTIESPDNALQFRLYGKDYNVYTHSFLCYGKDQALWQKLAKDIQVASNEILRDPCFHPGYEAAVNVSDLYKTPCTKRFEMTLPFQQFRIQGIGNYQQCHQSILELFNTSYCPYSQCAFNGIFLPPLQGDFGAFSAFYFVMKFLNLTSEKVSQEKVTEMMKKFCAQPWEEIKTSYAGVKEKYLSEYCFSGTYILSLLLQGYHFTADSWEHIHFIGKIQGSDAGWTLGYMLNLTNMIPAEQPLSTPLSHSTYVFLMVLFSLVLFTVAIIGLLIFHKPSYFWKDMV

Measured: binding

B1: antibody I-399 (antibody, V domains shown)
VH: PVQLQQPGAEVVMPGASVKLSCKASGYTFTSFWMNWMRQRPGQGLEWIGEIDPSDFYTNSNQRFKGKATLTVDKSSSTAYMQLSSLTSEDSAVYFCARGDFGWYFDVWGTGTSVTVSS
VL: EIVLTQSPTTMTSSPGEKITFTCSASSSINSNYLHWYQQKPGFSPKLLIYRTSNLASGVPTRFSGSGSGTSYSLTIGTMEAEDVATYYCQQGSSLPRTFGGGTKLEIK
binds: all assays above

Reference: US20190389961A1
